Experimental data reported in PMC9270373.

Experiments:
[1] = target: St14f L229A W232A (Solanum tuberosum L. (potato)); experiment: thermal shift assay; 10 µM St14f with no and with 100 µM StFDL1 peptide; SYPRO Orange; 10 mM HEPES pH 7.5, 0.15 M NaCl; heated from 25 to 99 °C; ΔTm = melting temperature difference with and without the peptide; both purified
[2] = target: potato 14-3-3 protein St14f (Solanum tuberosum L. (potato)); experiment: NMR titration; 1H-15N HSQC of 250 µM 15N Lys-labeled St14f with 0 mM and 1 mM StFDL1 peptide; 10 mM Tris pH 7.5, 1 mM DTT, 10% D2O, 298 K, 950 MHz; both purified

- binding [2]: binds
Binder: LNRTSTAPF (phosphothreonine (pT) at the sixth residue of the peptide, LNRTSpTAPF) [StFDL1 peptide (LNRTSpTAPF)]
- binding [1]: no binding (tested: 100 µM StFDL1 peptide)

Results are given in words; binding and its absence hold for the method and conditions named. For some assays here: A result given as binding can be weak or reduced; the word gives no strength.
